{
  "source": "PubChem BioAssay AID1487",
  "about": "(National Center for Advancing Translational Sciences (NCATS), 2009)",
  "assay": "qHTS Assay for Modulators of Lamin A Splicing",
  "conditions": "HeLa LMNA splicing GFP/RFP minigene ratio, 48 h",
  "method_in_brief": "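Read-out is the ratio of GFP to DsRed2 object intensity, acquired by 488 nm laser-scanning cytometry on HeLa lamin A-EGFP minigene reporter cells. Compound incubation 48 hrs at 37 °C in Opti-MEM with 2% FBS; DMSO 0.5% final.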",
  "key": {"[1]": {"conditions": "measured here: GFP splicing reporter channel"}, "[2]": {"conditions": "measured here: RFP viability control channel"}},
  "note": "Some of the results follow. The main result of the screen is listed elsewhere. These columns were measured beside it and carry no call. The list favours compounds with an active or inconclusive main result. The note in brackets gives the kind of curve behind each potency; many fits are weak.",
  "data": [
    {"smiles": "CN(c1ccccc1)c1ccc(/C=C/[N+](=O)[O-])cc1", "values": [
      {"measurement": "AC50", "setting": "[1]", "result": "4.47 µM [falling, partial curve, poor fit]"},
      {"measurement": "AC50", "setting": "[2]", "result": "4.47 µM [falling, single point]"}
    ]},
    {"smiles": "COc1ccc(N2CCN(C(=O)CSc3nnc4n3C(C)(C)Cc3ccccc3-4)CC2)cc1", "values": [
      {"measurement": "AC50", "setting": "[2]", "result": "15.8 µM [rising, single point]"}
    ]},
    {"smiles": "Cc1ccc(S(=O)(=O)N2CCC(=O)N(CCOC(=O)Nc3ccc(F)cc3)CC2)cc1", "values": [
      {"measurement": "AC50", "setting": "[1]", "result": "8.91 µM [rising, partial curve, poor fit]"}
    ]},
    {"smiles": "CCCCNC(=O)Cc1c(OC)ccc2cc(Br)ccc12", "values": [
      {"measurement": "AC50", "setting": "[2]", "result": "2.51 µM [rising, full curve, poor fit]"}
    ]},
    {"smiles": "Cc1cc(C(=O)COc2cc(F)ccc2[N+](=O)[O-])c(C)n1C1CC1", "values": [
      {"measurement": "AC50", "setting": "[1]", "result": "0.112 µM [falling, full curve, poor fit]"}
    ]},
    {"smiles": "CN1c2ccccc2C(C)(C)C12C=Cc1cc(O)ccc1O2", "note": "(stereo not given)", "values": [
      {"measurement": "AC50", "setting": "[1]", "result": "35.5 µM [falling, single point]"}
    ]},
    {"smiles": "COc1cc([N+](=O)[O-])ccc1NC(=O)Nc1nc2c(s1)CCCC2", "values": [
      {"measurement": "AC50", "setting": "[1]", "result": "35.5 µM [rising, single point]"}
    ]},
    {"smiles": "CC[N+](CC)(CC)CC(=O)Nc1c(C)cccc1C", "values": [
      {"measurement": "AC50", "setting": "[2]", "result": "8.91 µM [rising, partial curve, poor fit]"}
    ]},
    {"smiles": "CC[C@H](C)[C@H]1O[C@]2(CC[C@@H]1C)C[C@@H]1C[C@@H](C/C=C(\\C)[C@H](O[C@@H]3C[C@H](OC)[C@H](O[C@@H]4C[C@H](OC)[C@@H](O)[C@H](C)O4)[C@H](C)O3)[C@@H](C)/C=C/C=C3\\CO[C@@H]4[C@H](O)C(C)=C[C@@H](C(=O)O1)[C@]34O)O2", "values": [
      {"measurement": "AC50", "setting": "[1]", "result": "2.24 µM [falling, partial curve, poor fit]"},
      {"measurement": "AC50", "setting": "[2]", "result": "2.51 µM [rising, partial curve]"}
    ]},
    {"smiles": "CCCCCCCCC/C(=N\\O)c1ccccn1", "values": [
      {"measurement": "AC50", "setting": "[1]", "result": "14.1 µM [falling, single point]"},
      {"measurement": "AC50", "setting": "[2]", "result": "0.631 µM [falling, partial curve]"}
    ]},
    {"smiles": "C=C(C)Cn1c(SCC(=O)NCc2ccco2)nc2sc3c(c2c1=O)CCC3", "values": [
      {"measurement": "AC50", "setting": "[2]", "result": "0.562 µM [rising, full curve, poor fit]"}
    ]},
    {"smiles": "Fc1ccc(N=C2NN=C(c3cc(F)ccc3F)CS2)cc1", "values": [
      {"measurement": "AC50", "setting": "[2]", "result": "17.8 µM [rising, partial curve]"}
    ]},
    {"smiles": "CCOC(=O)C1CCCN(C(=O)c2ccc3c(c2)sc2nc(-c4ccc(C)cc4C)cn23)C1", "note": "(stereo not given)", "values": [
      {"measurement": "AC50", "setting": "[1]", "result": "5.62 µM [rising, full curve]"},
      {"measurement": "AC50", "setting": "[2]", "result": "7.08 µM [rising, partial curve]"}
    ]},
    {"smiles": "O=C(CCCOc1ccccc1)NCCc1nc2ccccc2[nH]1", "values": [
      {"measurement": "AC50", "setting": "[2]", "result": "1.41 µM [falling, full curve, poor fit]"}
    ]},
    {"smiles": "O=C(NCCCNc1ccc([N+](=O)[O-])cc1)C(F)(F)F", "values": [
      {"measurement": "AC50", "setting": "[1]", "result": "31.6 µM [rising, single point]"}
    ]},
    {"smiles": "O=C(c1cccc(Cl)c1)N1c2ncnn2C2(CCCCC2)[C@@H]2CCCC[C@@H]21", "values": [
      {"measurement": "AC50", "setting": "[1]", "result": "25.1 µM [falling, single point]"},
      {"measurement": "AC50", "setting": "[2]", "result": "5.01 µM [falling, partial curve, poor fit]"}
    ]},
    {"smiles": "Nc1nnc(N2CCc3ccccc32)s1", "values": [
      {"measurement": "AC50", "setting": "[1]", "result": "0.631 µM [falling, partial curve, poor fit]"}
    ]},
    {"smiles": "Cc1ccc(CCNC(=O)c2nnn(-c3cccc(C)c3)c2N)cc1", "values": [
      {"measurement": "AC50", "setting": "[2]", "result": "14.1 µM [rising, partial curve, poor fit]"}
    ]},
    {"smiles": "Cc1ccc(-c2csc3ncnc(-n4nnc5ccccc54)c23)cc1C", "values": [
      {"measurement": "AC50", "setting": "[1]", "result": "12.6 µM [rising, partial curve]"},
      {"measurement": "AC50", "setting": "[2]", "result": "22.4 µM [rising, partial curve]"}
    ]},
    {"smiles": "CS(=O)(=O)N1CCN(c2ccc(Cl)cc2[N+](=O)[O-])CC1", "values": [
      {"measurement": "AC50", "setting": "[2]", "result": "39.8 µM [rising, partial curve, poor fit]"}
    ]},
    {"smiles": "c1ccc(CCc2nc3ccccc3[nH]2)cc1", "values": [
      {"measurement": "AC50", "setting": "[1]", "result": "0.282 µM [rising, full curve, poor fit]"}
    ]},
    {"smiles": "Cc1ccc(S(=O)(=O)Nc2ccccc2CNc2ccc(Br)cn2)cc1", "values": [
      {"measurement": "AC50", "setting": "[1]", "result": "14.1 µM [rising, partial curve]"}
    ]},
    {"smiles": "Cc1cc(/C=N/NC(=O)CC#N)c(C)n1-c1ccc([N+](=O)[O-])cc1", "values": [
      {"measurement": "AC50", "setting": "[1]", "result": "0.0562 µM [falling, full curve, poor fit]"}
    ]},
    {"smiles": "COCCNC(=O)c1cc(OC)c(OC)cc1[N+](=O)[O-]", "values": [
      {"measurement": "AC50", "setting": "[1]", "result": "10 µM [rising, partial curve, poor fit]"}
    ]},
    {"smiles": "COCc1cc(C)nc2sc3c(=O)n(-c4ccccc4C(F)(F)F)nnc3c12", "values": [
      {"measurement": "AC50", "setting": "[2]", "result": "0.141 µM [falling, full curve, poor fit]"}
    ]},
    {"smiles": "CCCN1C/C(=C/c2ccc3c(c2)OCO3)C(=O)/C(=C/c2ccc3c(c2)OCO3)C1", "values": [
      {"measurement": "AC50", "setting": "[2]", "result": "10 µM [rising, partial curve]"}
    ]},
    {"smiles": "Cc1c(C(=O)N2CCCCC2)oc2ccc(S(=O)(=O)N3CC(C)CC(C)C3)cc12", "note": "(stereo not given)", "values": [
      {"measurement": "AC50", "setting": "[1]", "result": "2 µM [rising, partial curve]"},
      {"measurement": "AC50", "setting": "[2]", "result": "3.16 µM [rising, full curve]"}
    ]},
    {"smiles": "Oc1ccc2ccccc2c1C=Nc1ccccc1-c1nc2ccccc2[nH]1", "values": [
      {"measurement": "AC50", "setting": "[2]", "result": "28.2 µM [rising, single point]"}
    ]}
  ]
}
